Assay results as given in doi:10.1101/2021.07.15.452545.
Results are given in words; binding and its absence hold for the method and conditions named. In cells and extracts the contact can be indirect. Some binding calls cover weakened binding; strength is not graded here.

Protein sequences, listed by entry. Tags and fused reporters are not part of them. Lines headed by an entry give the natural chain unless they say otherwise; changes in a name come on top. Chains listed by the source or under a name are the forms on record and can include a tag or linker.
UniProt P63096: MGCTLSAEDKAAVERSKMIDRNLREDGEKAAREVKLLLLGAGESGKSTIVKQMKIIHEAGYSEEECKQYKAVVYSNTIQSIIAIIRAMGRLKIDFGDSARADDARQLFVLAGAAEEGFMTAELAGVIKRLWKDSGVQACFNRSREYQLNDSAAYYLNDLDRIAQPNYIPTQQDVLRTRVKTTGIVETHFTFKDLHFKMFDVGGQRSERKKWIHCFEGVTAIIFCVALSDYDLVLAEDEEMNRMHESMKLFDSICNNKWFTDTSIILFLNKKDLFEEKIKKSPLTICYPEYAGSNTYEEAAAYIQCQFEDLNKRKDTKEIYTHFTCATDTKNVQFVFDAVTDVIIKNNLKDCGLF
Gαi1-QL-FLAG-APEX2 (P63096, form named): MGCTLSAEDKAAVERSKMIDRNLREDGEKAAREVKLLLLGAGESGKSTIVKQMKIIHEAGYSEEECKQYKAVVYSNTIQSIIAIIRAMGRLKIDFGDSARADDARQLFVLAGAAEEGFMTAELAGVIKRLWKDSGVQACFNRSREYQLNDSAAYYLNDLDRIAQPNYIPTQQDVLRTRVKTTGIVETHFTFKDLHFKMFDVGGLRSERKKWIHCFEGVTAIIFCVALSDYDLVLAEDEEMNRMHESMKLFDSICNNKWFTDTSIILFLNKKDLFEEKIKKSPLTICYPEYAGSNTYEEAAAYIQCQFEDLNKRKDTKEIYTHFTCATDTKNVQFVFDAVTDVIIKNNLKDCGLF
UniProt O15085: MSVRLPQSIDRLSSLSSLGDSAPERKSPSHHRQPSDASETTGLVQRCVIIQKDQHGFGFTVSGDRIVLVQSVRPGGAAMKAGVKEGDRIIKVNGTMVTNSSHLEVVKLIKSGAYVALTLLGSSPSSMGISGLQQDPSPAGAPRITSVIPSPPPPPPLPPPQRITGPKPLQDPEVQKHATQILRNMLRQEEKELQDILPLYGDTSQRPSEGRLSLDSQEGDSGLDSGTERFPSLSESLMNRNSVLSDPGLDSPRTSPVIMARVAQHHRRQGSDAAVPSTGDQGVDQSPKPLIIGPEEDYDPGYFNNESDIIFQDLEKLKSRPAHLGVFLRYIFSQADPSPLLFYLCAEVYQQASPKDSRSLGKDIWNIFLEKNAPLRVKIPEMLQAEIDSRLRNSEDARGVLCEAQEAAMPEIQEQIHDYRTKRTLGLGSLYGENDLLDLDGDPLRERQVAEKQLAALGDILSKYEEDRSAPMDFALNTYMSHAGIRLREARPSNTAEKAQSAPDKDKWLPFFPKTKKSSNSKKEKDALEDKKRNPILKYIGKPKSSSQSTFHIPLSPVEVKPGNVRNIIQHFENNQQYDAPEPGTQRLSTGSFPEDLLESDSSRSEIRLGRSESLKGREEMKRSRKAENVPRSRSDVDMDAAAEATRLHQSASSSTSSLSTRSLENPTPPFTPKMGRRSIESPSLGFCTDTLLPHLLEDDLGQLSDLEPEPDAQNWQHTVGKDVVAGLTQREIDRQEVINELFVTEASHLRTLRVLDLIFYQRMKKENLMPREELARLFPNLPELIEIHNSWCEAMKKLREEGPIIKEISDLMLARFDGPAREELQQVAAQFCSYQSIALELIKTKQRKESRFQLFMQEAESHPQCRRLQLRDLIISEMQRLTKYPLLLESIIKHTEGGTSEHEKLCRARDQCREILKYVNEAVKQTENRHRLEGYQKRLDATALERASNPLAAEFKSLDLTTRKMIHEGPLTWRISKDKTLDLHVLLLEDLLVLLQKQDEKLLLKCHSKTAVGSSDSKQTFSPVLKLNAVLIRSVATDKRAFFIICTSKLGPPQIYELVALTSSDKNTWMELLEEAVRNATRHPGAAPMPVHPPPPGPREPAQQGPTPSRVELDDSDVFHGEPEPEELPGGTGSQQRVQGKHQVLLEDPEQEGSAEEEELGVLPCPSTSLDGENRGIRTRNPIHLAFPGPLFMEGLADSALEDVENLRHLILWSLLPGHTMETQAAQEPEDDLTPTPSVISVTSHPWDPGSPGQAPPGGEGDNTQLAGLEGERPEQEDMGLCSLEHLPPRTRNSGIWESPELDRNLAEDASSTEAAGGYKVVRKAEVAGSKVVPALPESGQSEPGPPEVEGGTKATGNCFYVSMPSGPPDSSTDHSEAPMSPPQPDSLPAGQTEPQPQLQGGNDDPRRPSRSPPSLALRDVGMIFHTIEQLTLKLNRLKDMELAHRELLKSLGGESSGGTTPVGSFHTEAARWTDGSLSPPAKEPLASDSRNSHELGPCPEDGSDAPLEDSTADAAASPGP

Biological target: Gαi1-QL-FLAG-APEX2 (UniProt P63096)
Assay: proximity ligation

GFP-PRG (from UniProt O15085 1-1522)
binding: binds
